Values from PubChem BioAssay AID1259314 (Drosophila RNAi Screening Center, 2017).

Test: 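Modifiers of manganese chloride toxicity in fly cells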 (primary screen)
System: Drosophila S2R+ cells
Reagents: long dsRNA against Drosophila genes
Time to read-out: 5 days (4 days knock-down, then 1 day metal exposure)
Challenge: manganese chloride added to 15 mM for 24 hours
Read-out: 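Luciferase ATP signal used as a proxy for viable cell number, reported as one averaged z-score per dsRNA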
Scale: mean ATP z-score: higher = more ATP than the plate average, more viable cells under manganese
Call rule: 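Called active when the mean ATP z-score is above 1.5 or below -1.5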
Calls: active = strong ATP change, up or down; inactive = no strong ATP change
The whole screen tested about 3,100 reagents; this is an unselected part. Over the whole deposit, 289 (9.3%) are marked active. 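Active includes both higher and lower ATP than plate average; check the z-score sign for direction.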 A plus sign joins genes that one reagent is predicted to hit. Not stated in the record: the amount of reagent.

Gene,amplicon,mean ATP z-score,Call
PGRP-SC2 (GeneID 35862),DRSC06481,0.122,inactive
PGRP-SC2 (GeneID 35862),DRSC25449,2.29,active
Gr23a (GeneID 33453),DRSC00410,-0.852,inactive
Gr23a (GeneID 33453),DRSC27488,0.617,inactive
CG10444 (GeneID 37294),DRSC05990,-1.38,inactive
CG10444 (GeneID 37294),DRSC39598,-0.0905,inactive
Indy (GeneID 40049),DRSC10393,-0.634,inactive
CG5715 (GeneID 42895),DRSC15860,-0.157,inactive
CG5715 (GeneID 42895),DRSC26011,0.578,inactive
mys (GeneID 44885),DRSC18799,-0.286,inactive
mys (GeneID 44885),DRSC29061,0.5,inactive
ttv (GeneID 36614),DRSC07709,1.41,inactive
ttv (GeneID 36614),DRSC26088,-1.29,inactive
CG33281 (GeneID 2768938),DRSC00421,-0.161,inactive
if (GeneID 32661),DRSC20341,-0.0551,inactive
if (GeneID 32661),DRSC39458,-1.01,inactive
Osi22 (GeneID 41632),DRSC16442,0.287,inactive
Osi22 (GeneID 41632),DRSC27176,-0.577,inactive
CG1924 (GeneID 32180),DRSC19823,-0.472,inactive
CG1924 (GeneID 32180),DRSC24870,4.28,active
CG17646 (GeneID 33354),DRSC00507,1.22,inactive
CG17646 (GeneID 33354),DRSC39859,0.51,inactive
Nup44A (GeneID 35762),DRSC07248,1.17,inactive
Nup44A (GeneID 35762),DRSC28141,-0.401,inactive
CG31358 + CG42505 + CG42504,DRSC15235,-0.894,inactive
CG31358 + CG42505 + CG42504,DRSC15308,-1.22,inactive
CG31358 + CG42505 + CG42504,DRSC15309,-0.497,inactive
Or19a + Or19b,DRSC22604,2.67,active
Or19a + Or19b,DRSC39643,1.32,inactive
IA-2 (GeneID 33277),DRSC00652,0.33,inactive
IA-2 (GeneID 33277),DRSC24588,-1.5,inactive
IA-2 (GeneID 33277),DRSC36830,-0.125,inactive
IA-2 (GeneID 33277),DRSC36831,-0.807,inactive
Spase22-23 (GeneID 42885),DRSC15857,-0.244,inactive
nAChRbeta1 (GeneID 38545),DRSC08097,-0.364,inactive
nAChRbeta1 (GeneID 38545),DRSC08728,1.34,inactive
Sys1 + Dhod,DRSC39530,0.533,inactive
VhaAC45 (GeneID 35944),DRSC07058,0.418,inactive
VhaAC45 (GeneID 35944),DRSC39906,-0.289,inactive
CG7255 (GeneID 39662),DRSC10790,-0.489,inactive
Nmdar1 (GeneID 40665),DRSC12071,0.356,inactive
Nmdar1 (GeneID 40665),DRSC12356,-0.674,inactive
Nmdar1 (GeneID 40665),DRSC24657,-0.844,inactive
CG32447 (GeneID 40412),DRSC11732,-0.881,inactive
CG32447 (GeneID 40412),DRSC11805,-0.554,inactive

Targets above whose target name begins with N or n (7):
Gene,amplicon,mean ATP z-score,Call
Nup44A (GeneID 35762),DRSC07248,1.17,inactive
Nup44A (GeneID 35762),DRSC28141,-0.401,inactive
nAChRbeta1 (GeneID 38545),DRSC08097,-0.364,inactive
nAChRbeta1 (GeneID 38545),DRSC08728,1.34,inactive
Nmdar1 (GeneID 40665),DRSC12071,0.356,inactive
Nmdar1 (GeneID 40665),DRSC12356,-0.674,inactive
Nmdar1 (GeneID 40665),DRSC24657,-0.844,inactive
